Measured values taken from article PMC12221972.

Protein sequences, listed by entry. Tags and fused reporters are not part of them. Lines headed by an entry give the natural chain unless they say otherwise; changes in a name come on top.
UniProt Q8IIS4: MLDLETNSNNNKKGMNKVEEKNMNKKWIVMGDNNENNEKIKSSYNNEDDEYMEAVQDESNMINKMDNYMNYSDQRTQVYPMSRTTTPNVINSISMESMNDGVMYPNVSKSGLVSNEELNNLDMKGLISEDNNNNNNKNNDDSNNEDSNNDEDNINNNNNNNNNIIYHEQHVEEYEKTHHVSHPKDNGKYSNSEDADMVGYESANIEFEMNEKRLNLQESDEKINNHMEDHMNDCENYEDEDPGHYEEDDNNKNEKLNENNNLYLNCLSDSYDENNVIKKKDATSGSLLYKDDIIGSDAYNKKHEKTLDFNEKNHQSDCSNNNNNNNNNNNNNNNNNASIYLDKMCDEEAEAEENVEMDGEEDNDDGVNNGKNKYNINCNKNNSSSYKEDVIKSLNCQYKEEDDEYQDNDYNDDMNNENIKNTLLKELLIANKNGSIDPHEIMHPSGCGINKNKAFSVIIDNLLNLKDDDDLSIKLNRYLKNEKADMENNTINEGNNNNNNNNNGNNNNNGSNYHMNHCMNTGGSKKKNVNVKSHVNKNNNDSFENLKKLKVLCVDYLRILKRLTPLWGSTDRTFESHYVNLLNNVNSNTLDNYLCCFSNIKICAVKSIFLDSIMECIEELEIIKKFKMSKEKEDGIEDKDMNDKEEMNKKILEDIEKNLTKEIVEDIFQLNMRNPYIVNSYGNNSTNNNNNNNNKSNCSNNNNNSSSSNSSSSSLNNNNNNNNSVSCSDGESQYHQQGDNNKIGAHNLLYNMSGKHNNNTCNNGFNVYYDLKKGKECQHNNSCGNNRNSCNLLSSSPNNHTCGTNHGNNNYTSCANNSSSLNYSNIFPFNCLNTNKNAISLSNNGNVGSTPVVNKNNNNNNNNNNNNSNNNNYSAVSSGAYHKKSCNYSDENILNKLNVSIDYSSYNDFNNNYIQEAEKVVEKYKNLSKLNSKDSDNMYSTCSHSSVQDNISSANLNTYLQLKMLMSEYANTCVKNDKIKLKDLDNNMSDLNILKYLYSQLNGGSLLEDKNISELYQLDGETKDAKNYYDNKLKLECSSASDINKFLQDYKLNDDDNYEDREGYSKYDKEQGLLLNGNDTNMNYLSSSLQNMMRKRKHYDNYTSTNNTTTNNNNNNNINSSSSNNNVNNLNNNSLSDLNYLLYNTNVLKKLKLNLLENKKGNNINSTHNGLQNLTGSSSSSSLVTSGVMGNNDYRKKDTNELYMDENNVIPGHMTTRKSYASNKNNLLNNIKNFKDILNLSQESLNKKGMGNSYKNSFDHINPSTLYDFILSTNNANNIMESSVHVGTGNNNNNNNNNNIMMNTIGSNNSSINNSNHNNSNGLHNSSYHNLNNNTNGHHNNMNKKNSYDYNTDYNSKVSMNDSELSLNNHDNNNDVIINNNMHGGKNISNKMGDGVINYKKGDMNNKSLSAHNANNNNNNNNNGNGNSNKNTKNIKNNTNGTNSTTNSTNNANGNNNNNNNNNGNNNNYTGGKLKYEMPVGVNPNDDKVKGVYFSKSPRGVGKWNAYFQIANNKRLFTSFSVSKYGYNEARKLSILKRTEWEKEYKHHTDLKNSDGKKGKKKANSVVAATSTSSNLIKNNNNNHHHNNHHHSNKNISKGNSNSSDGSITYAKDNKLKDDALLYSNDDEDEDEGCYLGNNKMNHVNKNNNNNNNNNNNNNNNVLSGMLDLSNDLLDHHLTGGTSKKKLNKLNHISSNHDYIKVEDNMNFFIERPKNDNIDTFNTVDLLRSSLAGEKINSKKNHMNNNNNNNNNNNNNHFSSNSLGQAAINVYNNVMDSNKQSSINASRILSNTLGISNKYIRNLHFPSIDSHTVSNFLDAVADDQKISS
UniProt Q8IKF6: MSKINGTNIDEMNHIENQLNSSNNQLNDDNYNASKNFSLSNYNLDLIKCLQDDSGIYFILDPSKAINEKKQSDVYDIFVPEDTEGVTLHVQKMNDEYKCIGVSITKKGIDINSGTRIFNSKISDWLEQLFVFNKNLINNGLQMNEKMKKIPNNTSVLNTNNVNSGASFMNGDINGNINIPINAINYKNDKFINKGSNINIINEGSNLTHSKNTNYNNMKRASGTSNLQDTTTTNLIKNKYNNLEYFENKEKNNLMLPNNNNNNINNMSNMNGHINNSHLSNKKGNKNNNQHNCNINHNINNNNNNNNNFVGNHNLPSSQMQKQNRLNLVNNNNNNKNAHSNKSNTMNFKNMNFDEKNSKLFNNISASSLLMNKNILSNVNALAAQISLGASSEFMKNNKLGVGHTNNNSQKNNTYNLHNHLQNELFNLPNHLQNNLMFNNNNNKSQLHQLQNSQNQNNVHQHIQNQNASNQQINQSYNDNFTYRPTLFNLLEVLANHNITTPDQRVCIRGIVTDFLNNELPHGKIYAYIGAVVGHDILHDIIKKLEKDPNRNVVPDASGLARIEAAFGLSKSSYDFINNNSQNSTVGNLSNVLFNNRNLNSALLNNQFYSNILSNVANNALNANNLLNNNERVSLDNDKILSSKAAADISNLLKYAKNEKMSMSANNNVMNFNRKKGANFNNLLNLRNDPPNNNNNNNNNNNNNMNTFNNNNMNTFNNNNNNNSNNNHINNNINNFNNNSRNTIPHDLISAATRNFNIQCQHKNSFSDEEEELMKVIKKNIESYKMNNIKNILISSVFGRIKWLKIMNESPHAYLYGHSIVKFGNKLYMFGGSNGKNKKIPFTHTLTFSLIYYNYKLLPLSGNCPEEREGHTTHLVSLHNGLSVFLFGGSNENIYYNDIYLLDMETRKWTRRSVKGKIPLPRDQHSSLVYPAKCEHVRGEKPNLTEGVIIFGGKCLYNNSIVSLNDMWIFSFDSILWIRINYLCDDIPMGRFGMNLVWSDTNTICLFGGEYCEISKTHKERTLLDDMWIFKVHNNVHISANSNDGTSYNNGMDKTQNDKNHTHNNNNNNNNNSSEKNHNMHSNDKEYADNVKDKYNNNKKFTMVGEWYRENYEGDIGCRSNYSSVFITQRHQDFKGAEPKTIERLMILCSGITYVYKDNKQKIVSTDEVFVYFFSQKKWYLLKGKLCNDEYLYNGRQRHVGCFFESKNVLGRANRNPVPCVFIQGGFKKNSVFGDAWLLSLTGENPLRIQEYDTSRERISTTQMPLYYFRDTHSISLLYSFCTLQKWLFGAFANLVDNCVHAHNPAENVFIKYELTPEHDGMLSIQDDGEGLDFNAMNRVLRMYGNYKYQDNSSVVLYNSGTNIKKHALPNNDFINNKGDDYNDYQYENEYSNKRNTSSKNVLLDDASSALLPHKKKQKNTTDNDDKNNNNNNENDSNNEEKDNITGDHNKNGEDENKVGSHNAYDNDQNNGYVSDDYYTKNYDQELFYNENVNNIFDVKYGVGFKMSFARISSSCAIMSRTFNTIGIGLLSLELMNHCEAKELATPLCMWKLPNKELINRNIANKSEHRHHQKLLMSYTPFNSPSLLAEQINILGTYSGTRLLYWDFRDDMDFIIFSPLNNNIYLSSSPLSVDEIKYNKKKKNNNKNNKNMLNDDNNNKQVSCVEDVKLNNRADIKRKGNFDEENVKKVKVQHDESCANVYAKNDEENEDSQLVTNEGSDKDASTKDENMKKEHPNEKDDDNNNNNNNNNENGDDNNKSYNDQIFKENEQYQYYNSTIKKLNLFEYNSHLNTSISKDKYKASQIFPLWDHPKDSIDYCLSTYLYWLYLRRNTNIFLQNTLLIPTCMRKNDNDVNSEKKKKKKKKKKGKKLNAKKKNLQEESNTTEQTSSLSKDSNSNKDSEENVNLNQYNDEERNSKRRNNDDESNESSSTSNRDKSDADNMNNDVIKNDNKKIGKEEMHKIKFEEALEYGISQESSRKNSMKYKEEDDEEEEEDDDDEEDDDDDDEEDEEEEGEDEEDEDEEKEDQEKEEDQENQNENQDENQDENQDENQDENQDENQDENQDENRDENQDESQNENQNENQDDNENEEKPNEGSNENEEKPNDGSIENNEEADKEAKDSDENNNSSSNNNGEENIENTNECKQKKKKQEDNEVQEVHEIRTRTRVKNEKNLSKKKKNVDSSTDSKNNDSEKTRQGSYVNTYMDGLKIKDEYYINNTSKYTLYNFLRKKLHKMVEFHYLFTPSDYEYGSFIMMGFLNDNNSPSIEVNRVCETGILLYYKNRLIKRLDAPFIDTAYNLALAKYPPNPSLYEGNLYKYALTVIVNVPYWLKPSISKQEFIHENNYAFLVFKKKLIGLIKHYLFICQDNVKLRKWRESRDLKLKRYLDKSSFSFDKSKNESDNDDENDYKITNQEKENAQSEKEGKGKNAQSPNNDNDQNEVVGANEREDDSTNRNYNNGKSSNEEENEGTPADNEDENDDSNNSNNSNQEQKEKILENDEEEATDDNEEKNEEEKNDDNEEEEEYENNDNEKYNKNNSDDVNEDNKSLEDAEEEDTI

Target: AP2-P-3HA (Plasmodium falciparum (3D7)) (UniProt Q8IIS4)
Assay: co-IP; AP2-P-3HA-glmS:MORC-GFP parasites cross-linked at 36 hpi; anti-HA antibody (or IgG as control) on Protein G Dynabeads incubated with diluted nuclear lysates 4 h at 4 °C; western blot with anti-HA, anti-GFP and anti-H3

- binding: binds
Substance: MORC-GFP (from UniProt Q8IKF6)

Results are given in words; binding and its absence hold for the method and conditions named. Binding seen in cells or lysates may run through a third protein. A result given as binding can be weak or reduced; the word gives no strength.
